# Experimental data reported in the supplement of paper PMC8728848.
# The list shows a part of the results.
# B1: LysMD3 (Homo sapiens), Q7Z3D4 (protein)
# chain: MAGRHQNRSFPLPGVQSSGQVHAFGNCSDSDILEEDAEVYELRSRGKEKVRRSTSRDRLDDIIVLTKDIQEGDTLNAIALQYCCTVADIKRVNNLISDQDFFALRSIKIPVKKFSSLTETLCPPKGRQTSRHSSVQYSSEQQEILPANDSLAYSDSAGSFLKEVDRDIEQIVKCTDNKRENLNEVVSALTAQQMRFEPDNKNTQRKDPYYGADWGIG
# Legend:
# Experiment in all cases: glycan array binding signal (z-score within array); higher = stronger binding
# Details in all cases: glycan notation: IUPAC condensed, linker removed
# [1] = molecular target: Gal(b1-4)GlcNAc(b1-3)Gal(b1-4)GlcNAc(b1-2)Man(a1-3)[Gal(b1-4)GlcNAc(b1-3)Gal(b1-4)GlcNAc(b1-2)Man(a1-6)]Man(b1-4)GlcNAc(b1-4)[Fuc(a1-6)]GlcNAc
# How it was run: (§1)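 Glycan array binding is given as a within-array Z-score, which can be read as non-binding when negative. The arrays, 3228 of them, came from the Consortium for Functional Glycomics database and were retained only where the protein sequence was available. Z-scores were averaged across arrays of the same protein sequence at different concentrations or buffers and across linkers.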
# [2] = molecular target: Gal(b1-4)GlcNAc(b1-3)Gal(b1-4)GlcNAc(b1-2)[Gal(b1-4)GlcNAc(b1-3)Gal(b1-4)GlcNAc(b1-6)]Man(a1-6)[Gal(b1-4)GlcNAc(b1-3)Gal(b1-4)GlcNAc(b1-2)Man(a1-3)]Man(b1-4)GlcNAc(b1-4)GlcNAc
# How it was run: as §1
# [3] = molecular target: Gal(b1-4)GlcNAc(b1-3)Gal(b1-4)GlcNAc(b1-2)[Gal(b1-4)GlcNAc(b1-3)Gal(b1-4)GlcNAc(b1-6)]Man(a1-6)[Gal(b1-4)GlcNAc(b1-3)Gal(b1-4)GlcNAc(b1-2)Man(a1-3)]Man(b1-4)GlcNAc(b1-4)[Fuc(a1-6)]GlcNAc
# How it was run: as §1
# [4] = molecular target: Gal(b1-4)GlcNAc(b1-3)Gal(b1-4)GlcNAc(b1-3)Gal(b1-4)GlcNAc
# How it was run: as §1
# [5] = molecular target: Gal(b1-4)GlcNAc(b1-3)Gal(b1-4)GlcNAc(b1-3)Gal(b1-4)GlcNAc(b1-2)Man(a1-3)[Gal(b1-4)GlcNAc(b1-3)Gal(b1-4)GlcNAc(b1-3)Gal(b1-4)GlcNAc(b1-2)Man(a1-6)]Man(b1-4)GlcNAc(b1-4)GlcNAc
# How it was run: as §1
# [6] = molecular target: Gal(b1-4)GlcNAc(b1-3)Gal(b1-4)GlcNAc(b1-3)Gal(b1-4)GlcNAc(b1-2)Man(a1-3)[Gal(b1-4)GlcNAc(b1-3)Gal(b1-4)GlcNAc(b1-3)Gal(b1-4)GlcNAc(b1-2)Man(a1-6)]Man(b1-4)GlcNAc(b1-4)[Fuc(a1-6)]GlcNAc
# How it was run: as §1
# [7] = molecular target: Gal(b1-4)GlcNAc(b1-3)Gal(b1-4)GlcNAc(b1-3)Gal(b1-4)GlcNAc(b1-2)[Gal(b1-4)GlcNAc(b1-3)Gal(b1-4)GlcNAc(b1-3)Gal(b1-4)GlcNAc(b1-6)]Man(a1-6)[Gal(b1-4)GlcNAc(b1-3)Gal(b1-4)GlcNAc(b1-3)Gal(b1-4)GlcNAc(b1-2)Man(a1-3)]Man(b1-4)GlcNAc(b1-4)[Fuc(a1-6)]GlcNAc
# How it was run: as §1
# [8] = molecular target: Gal(b1-4)GlcNAc(b1-3)Gal(b1-4)GlcNAc(b1-3)Gal(b1-4)GlcNAc(b1-3)Gal(b1-4)GlcNAc(b1-2)Man(a1-3)[Gal(b1-4)GlcNAc(b1-3)Gal(b1-4)GlcNAc(b1-3)Gal(b1-4)GlcNAc(b1-3)Gal(b1-4)GlcNAc(b1-2)Man(a1-6)]Man(b1-4)GlcNAc(b1-4)GlcNAc
# How it was run: as §1
# [9] = molecular target: Gal(b1-4)GlcNAc(b1-3)Gal(b1-4)GlcNAc(b1-3)Gal(b1-4)GlcNAc(b1-3)Gal(b1-4)GlcNAc(b1-2)Man(a1-3)[Gal(b1-4)GlcNAc(b1-3)Gal(b1-4)GlcNAc(b1-3)Gal(b1-4)GlcNAc(b1-3)Gal(b1-4)GlcNAc(b1-2)Man(a1-6)]Man(b1-4)GlcNAc(b1-4)[Fuc(a1-6)]GlcNAc
# How it was run: as §1
# [10] = molecular target: Gal(b1-4)GlcNAc(b1-3)Gal(b1-4)GlcNAc(b1-3)Gal(b1-4)GlcNAc(b1-3)Gal(b1-4)GlcNAc(b1-2)[Gal(b1-4)GlcNAc(b1-3)Gal(b1-4)GlcNAc(b1-3)Gal(b1-4)GlcNAc(b1-3)Gal(b1-4)GlcNAc(b1-6)]Man(a1-6)[Gal(b1-4)GlcNAc(b1-3)Gal(b1-4)GlcNAc(b1-3)Gal(b1-4)GlcNAc(b1-3)Gal(b1-4)GlcNAc(b1-2)Man(a1-3)]Man(b1-4)GlcNAc(b1-4)[Fuc(a1-6)]GlcNAc
# How it was run: as §1
# [11] = molecular target: Gal(b1-4)GlcNAc(b1-3)Gal(b1-4)GlcNAc(b1-3)Gal(b1-4)GlcNAc(b1-3)Gal(b1-4)GlcNAc(b1-3)Gal(b1-4)GlcNAc(b1-2)Man(a1-3)[Gal(b1-4)GlcNAc(b1-3)Gal(b1-4)GlcNAc(b1-3)Gal(b1-4)GlcNAc(b1-3)Gal(b1-4)GlcNAc(b1-3)Gal(b1-4)GlcNAc(b1-2)Man(a1-6)]Man(b1-4)GlcNAc(b1-4)GlcNAc
# How it was run: as §1
# [12] = molecular target: Gal(b1-4)GlcNAc(b1-3)Gal(b1-4)GlcNAc(b1-3)Gal(b1-4)GlcNAc(b1-3)Gal(b1-4)GlcNAc(b1-3)Gal(b1-4)GlcNAc(b1-2)Man(a1-3)[Gal(b1-4)GlcNAc(b1-3)Gal(b1-4)GlcNAc(b1-3)Gal(b1-4)GlcNAc(b1-3)Gal(b1-4)GlcNAc(b1-3)Gal(b1-4)GlcNAc(b1-2)Man(a1-6)]Man(b1-4)GlcNAc(b1-4)[Fuc(a1-6)]GlcNAc
# How it was run: as §1
# [13] = molecular target: Gal(b1-4)GlcNAc(b1-3)Gal(b1-4)GlcNAc(b1-3)Gal(b1-4)GlcNAc(b1-3)Gal(b1-4)GlcNAc(b1-3)Gal(b1-4)GlcNAc(b1-2)[Gal(b1-4)GlcNAc(b1-3)Gal(b1-4)GlcNAc(b1-3)Gal(b1-4)GlcNAc(b1-3)Gal(b1-4)GlcNAc(b1-3)Gal(b1-4)GlcNAc(b1-6)]Man(a1-6)[Gal(b1-4)GlcNAc(b1-3)Gal(b1-4)GlcNAc(b1-3)Gal(b1-4)GlcNAc(b1-3)Gal(b1-4)GlcNAc(b1-3)Gal(b1-4)GlcNAc(b1-2)Man(a1-3)]Man(b1-4)GlcNAc(b1-4)[Fuc(a1-6)]GlcNAc
# How it was run: as §1
# [14] = molecular target: Gal(b1-4)GlcNAc(b1-3)Gal(b1-4)GlcNAc(b1-3)Gal(b1-4)GlcNAc(b1-3)Gal(b1-4)GlcNAc(b1-3)Gal(b1-4)GlcNAc(b1-3)Gal(b1-4)GlcNAc(b1-2)Man(a1-3)[Gal(b1-4)GlcNAc(b1-3)Gal(b1-4)GlcNAc(b1-3)Gal(b1-4)GlcNAc(b1-3)Gal(b1-4)GlcNAc(b1-3)Gal(b1-4)GlcNAc(b1-3)Gal(b1-4)GlcNAc(b1-2)Man(a1-6)]Man(b1-4)GlcNAc(b1-4)GlcNAc
# How it was run: as §1
# [15] = molecular target: Gal(b1-4)GlcNAc(b1-3)Gal(b1-4)GlcNAc(b1-3)GalNAc
# How it was run: as §1
# [16] = molecular target: Gal(b1-4)GlcNAc(b1-3)Gal(b1-4)GlcNAc(b1-3)[Gal(b1-4)GlcNAc(b1-3)Gal(b1-4)GlcNAc(b1-6)]GalNAc
# How it was run: as §1
# [17] = molecular target: Gal(b1-4)GlcNAc(b1-3)Gal(b1-4)GlcNAc(b1-6)[Gal(b1-3)]GalNAc
# How it was run: as §1
# [18] = molecular target: Gal(b1-4)GlcNAc(b1-3)Gal(b1-4)[Fuc(a1-3)]GlcNAc(b1-3)Gal(b1-4)[Fuc(a1-3)]GlcNAc
# How it was run: as §1
# [19] = molecular target: Gal(b1-4)GlcNAc(b1-3)GalNAc
# How it was run: as §1
# [20] = molecular target: Gal(b1-4)GlcNAc(b1-3)[Fuc(a1-3)GlcNAc(b1-6)]Gal(b1-4)Glc
# How it was run: as §1
# [21] = molecular target: Gal(b1-4)GlcNAc(b1-3)[Gal(b1-4)GlcNAc(b1-6)]Gal(b1-4)GlcNAc
# How it was run: as §1
# [22] = molecular target: Gal(b1-4)GlcNAc(b1-3)[GlcNAc(b1-6)]Gal(b1-4)GlcNAc
# How it was run: as §1
# [23] = molecular target: Gal(b1-4)GlcNAc(b1-6)Gal(b1-4)GlcNAc
# How it was run: as §1
# [24] = molecular target: Gal(b1-4)GlcNAc(b1-6)GalNAc
# How it was run: as §1
# [25] = molecular target: Gal(b1-4)GlcNAc(b1-6)[Gal(b1-3)]GalNAc
# How it was run: as §1
# [26] = molecular target: Gal(b1-4)GlcNAc(b1-6)[Gal(b1-4)GlcNAc(b1-3)]GalNAc
# How it was run: as §1
# [27] = molecular target: Gal(b1-4)GlcNAc6P
# How it was run: as §1
# [28] = molecular target: Gal(b1-6)Gal
# How it was run: as §1
# [29] = molecular target: Gal3S(b1-3)GalNAc
# How it was run: as §1
# [30] = molecular target: Gal3S(b1-3)GlcNAc
# How it was run: as §1
# [31] = molecular target: Gal3S(b1-3)[Fuc(a1-4)]GlcNAc
# How it was run: as §1
# [32] = molecular target: Gal3S(b1-4)Glc
# How it was run: as §1
# [33] = molecular target: Gal3S(b1-4)Glc6S
# How it was run: as §1
# [34] = molecular target: Gal3S(b1-4)GlcNAc
# How it was run: as §1
# [35] = molecular target: Gal3S(b1-4)[Fuc(a1-3)]Glc6S
# How it was run: as §1
# [36] = molecular target: Gal3S(b1-4)[Fuc(a1-3)]GlcNAc
# How it was run: as §1
# [37] = molecular target: Gal3S(b1-4)[Fuc(a1-3)]GlcNAc6S
# How it was run: as §1
# [38] = molecular target: Gal3S4S(b1-4)GlcNAc
# How it was run: as §1
# [39] = molecular target: Gal3S6S(b1-4)GlcNAc
# How it was run: as §1
# [40] = molecular target: Gal3S6S(b1-4)GlcNAc6S
# How it was run: as §1
# [41] = molecular target: Gal4S(b1-4)GlcNAc
# How it was run: as §1
# [42] = molecular target: Gal4S6S(b1-4)GlcNAc
# How it was run: as §1
# [43] = molecular target: Gal6P(b1-4)GlcNAc
# How it was run: as §1
# [44] = molecular target: Gal6S(b1-3)GlcNAc
# How it was run: as §1
# [45] = molecular target: Gal6S(b1-3)GlcNAc6S
# How it was run: as §1
binder,measurement,setting,value
B1,glycan array binding signal (z-score),[1],0.897
same,glycan array binding signal (z-score),[2],-0.473
same,glycan array binding signal (z-score),[3],1.56
same,glycan array binding signal (z-score),[4],-0.65
same,glycan array binding signal (z-score),[5],1.65
same,glycan array binding signal (z-score),[6],0.606
same,glycan array binding signal (z-score),[7],0.982
same,glycan array binding signal (z-score),[8],1.02
same,glycan array binding signal (z-score),[9],0.94
same,glycan array binding signal (z-score),[10],-0.101
same,glycan array binding signal (z-score),[11],0.305
same,glycan array binding signal (z-score),[12],0.267
same,glycan array binding signal (z-score),[13],0.022
same,glycan array binding signal (z-score),[14],-0.094
same,glycan array binding signal (z-score),[15],-0.073
same,glycan array binding signal (z-score),[16],-0.389
same,glycan array binding signal (z-score),[17],-0.539
same,glycan array binding signal (z-score),[18],0.119
same,glycan array binding signal (z-score),[19],0.375
same,glycan array binding signal (z-score),[20],0.442
same,glycan array binding signal (z-score),[21],-0.668
same,glycan array binding signal (z-score),[22],-0.966
same,glycan array binding signal (z-score),[23],1.56
same,glycan array binding signal (z-score),[24],0.988
same,glycan array binding signal (z-score),[25],-0.769
same,glycan array binding signal (z-score),[26],0.69
same,glycan array binding signal (z-score),[27],-0.724
same,glycan array binding signal (z-score),[28],-0.368
same,glycan array binding signal (z-score),[29],-0.094
same,glycan array binding signal (z-score),[30],0.323
same,glycan array binding signal (z-score),[31],0.577
same,glycan array binding signal (z-score),[32],0.287
same,glycan array binding signal (z-score),[33],-0.841
same,glycan array binding signal (z-score),[34],-0.699
same,glycan array binding signal (z-score),[35],0.778
same,glycan array binding signal (z-score),[36],0.294
same,glycan array binding signal (z-score),[37],-0.672
same,glycan array binding signal (z-score),[38],-0.834
same,glycan array binding signal (z-score),[39],1.07
same,glycan array binding signal (z-score),[40],0.302
same,glycan array binding signal (z-score),[41],-0.528
same,glycan array binding signal (z-score),[42],-0.42
same,glycan array binding signal (z-score),[43],0.452
same,glycan array binding signal (z-score),[44],-0.074
same,glycan array binding signal (z-score),[45],-1.61

# Some of the entries so far, with tabs.
binder	measurement	setting	value
B1	glycan array binding signal (z-score)	[21]	-0.668
same	glycan array binding signal (z-score)	[22]	-0.966
same	glycan array binding signal (z-score)	[23]	1.56
same	glycan array binding signal (z-score)	[24]	0.988
same	glycan array binding signal (z-score)	[25]	-0.769
same	glycan array binding signal (z-score)	[26]	0.69
same	glycan array binding signal (z-score)	[27]	-0.724
same	glycan array binding signal (z-score)	[28]	-0.368
same	glycan array binding signal (z-score)	[29]	-0.094
